# Screening data, single-dose tests

By UniProt entry, the sequences of proteins in these tests, tags left out. Residues count along the entry.
UniProt A4I591, 1-473: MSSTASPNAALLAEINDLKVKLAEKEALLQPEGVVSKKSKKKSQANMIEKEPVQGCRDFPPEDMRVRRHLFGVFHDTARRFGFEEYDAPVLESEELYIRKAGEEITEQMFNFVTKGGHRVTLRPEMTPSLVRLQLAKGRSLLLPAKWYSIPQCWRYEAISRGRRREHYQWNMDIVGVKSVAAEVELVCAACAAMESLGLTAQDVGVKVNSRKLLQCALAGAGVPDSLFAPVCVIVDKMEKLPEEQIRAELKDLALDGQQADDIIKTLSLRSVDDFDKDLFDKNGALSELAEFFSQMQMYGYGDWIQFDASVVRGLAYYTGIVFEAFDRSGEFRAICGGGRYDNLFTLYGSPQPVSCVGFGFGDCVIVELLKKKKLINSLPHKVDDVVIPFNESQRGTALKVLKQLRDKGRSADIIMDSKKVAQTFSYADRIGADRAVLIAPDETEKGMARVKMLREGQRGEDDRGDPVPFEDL
UniProt I6X8D2, whole entry: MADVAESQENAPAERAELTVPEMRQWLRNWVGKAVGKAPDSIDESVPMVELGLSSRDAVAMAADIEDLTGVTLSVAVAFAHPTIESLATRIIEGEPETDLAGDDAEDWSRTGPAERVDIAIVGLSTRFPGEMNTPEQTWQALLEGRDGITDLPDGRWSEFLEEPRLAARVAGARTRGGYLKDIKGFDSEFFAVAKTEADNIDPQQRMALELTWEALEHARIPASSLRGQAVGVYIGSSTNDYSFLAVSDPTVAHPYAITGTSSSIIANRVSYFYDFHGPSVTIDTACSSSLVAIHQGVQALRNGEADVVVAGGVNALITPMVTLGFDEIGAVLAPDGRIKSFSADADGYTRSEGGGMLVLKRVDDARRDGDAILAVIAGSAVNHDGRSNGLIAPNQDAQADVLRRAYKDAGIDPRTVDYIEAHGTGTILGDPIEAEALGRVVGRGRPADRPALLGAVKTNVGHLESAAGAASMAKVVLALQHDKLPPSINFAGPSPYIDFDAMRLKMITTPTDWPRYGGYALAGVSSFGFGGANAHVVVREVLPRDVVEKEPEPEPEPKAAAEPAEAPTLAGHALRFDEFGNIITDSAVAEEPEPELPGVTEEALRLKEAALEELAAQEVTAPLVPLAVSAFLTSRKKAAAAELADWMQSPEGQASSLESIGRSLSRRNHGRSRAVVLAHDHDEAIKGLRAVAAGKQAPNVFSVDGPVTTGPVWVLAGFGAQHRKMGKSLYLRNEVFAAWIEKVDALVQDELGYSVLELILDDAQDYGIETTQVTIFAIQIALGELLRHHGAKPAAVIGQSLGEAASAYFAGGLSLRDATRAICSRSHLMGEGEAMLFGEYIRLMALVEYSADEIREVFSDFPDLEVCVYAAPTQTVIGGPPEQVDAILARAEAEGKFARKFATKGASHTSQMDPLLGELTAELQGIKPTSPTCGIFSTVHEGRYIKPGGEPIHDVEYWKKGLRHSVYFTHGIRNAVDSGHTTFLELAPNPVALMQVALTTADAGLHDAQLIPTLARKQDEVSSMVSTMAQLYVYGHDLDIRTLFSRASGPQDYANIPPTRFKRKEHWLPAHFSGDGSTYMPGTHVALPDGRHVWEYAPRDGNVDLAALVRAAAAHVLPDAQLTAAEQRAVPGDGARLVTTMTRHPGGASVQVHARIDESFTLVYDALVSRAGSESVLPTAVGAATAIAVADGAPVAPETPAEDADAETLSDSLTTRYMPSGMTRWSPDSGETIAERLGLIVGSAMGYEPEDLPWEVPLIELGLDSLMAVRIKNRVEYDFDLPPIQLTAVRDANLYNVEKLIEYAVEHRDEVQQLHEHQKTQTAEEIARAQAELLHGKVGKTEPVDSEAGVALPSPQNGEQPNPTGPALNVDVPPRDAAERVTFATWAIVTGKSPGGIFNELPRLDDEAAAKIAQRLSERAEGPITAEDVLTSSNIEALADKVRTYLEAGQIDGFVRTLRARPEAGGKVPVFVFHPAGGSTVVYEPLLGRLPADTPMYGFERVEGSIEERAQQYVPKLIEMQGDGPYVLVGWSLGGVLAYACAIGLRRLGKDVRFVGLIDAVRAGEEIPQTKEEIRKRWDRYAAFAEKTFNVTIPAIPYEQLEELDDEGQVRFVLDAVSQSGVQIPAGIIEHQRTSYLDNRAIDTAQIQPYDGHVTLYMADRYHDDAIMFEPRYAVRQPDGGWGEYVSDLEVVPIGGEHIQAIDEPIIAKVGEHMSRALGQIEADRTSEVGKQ

From ChEMBL document CHEMBL3988442, “University of Dundee, Small-Polar-MMV Screening Library” (2021).

LiHisRS: 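Enzyme assay of histidyl-tRNA synthetase; the read-out is not stated. Target: Histidine-tRNA ligase, Leishmania infantum (UniProt A4I591). Tested at 30 µM. The record gives no direction; compounds that gave an IC50 in retests scored well above the rest, so higher reads as stronger inhibition. The assay is labelled LdHisRS but filed under L. infantum. Of about 69,000 compounds tested this way, about 410 (0.6%) reached 50% or more in at least one test.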
Pks13 thioesterase: 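Enzyme assay of the thioesterase domain of polyketide synthase 13; the read-out is not stated. Target: Polyketide synthase Pks13, Mycobacterium tuberculosis (UniProt I6X8D2). Concentration: 30 µM. Higher reads as stronger inhibition (inferred from which compounds were picked for retests). About 67,000 compounds were tested under these conditions; 0.46% (about 300) showed 50% or more at least once.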
Leishmania in macrophages: 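Cell assay of Leishmania donovani living inside macrophages; the read-out is not stated. Tested at 30 µM. Higher reads as stronger inhibition (inferred: compounds with an IC50 in retests scored well above the rest). About 69,000 compounds were tested under these conditions; 1.5% (about 1,000) showed 50% or more at least once.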

Results are given as percent effect. The record does not define 0% and 100%; most values in the screen are far below 50% and negative numbers occur (in some assays of this library far below -100). This is an unselected part of the compounds tested. A dash means the value is not listed here; it may have been measured.

| compound | LiHisRS | Pks13 thioesterase | Leishmania in macrophages |
|---|---|---|---|
| `CN(Cc1ccco1)C(=O)CN1CCCCC1Cn1cccn1` (centres undefined) | 13.33 | -1.475 | 26.87 |
| `Cc1nc2ccnn2c(C)c1CCC(=O)N1CCSCC1` | 4.386 | -2.245 | -30.39 |
| `Cc1nc(CN2CCOCC3(CCN(c4cccnc4)CC3)C2)cs1` | 11.54 | 4.165 | - |
| `CCCC(NC(=O)c1cc(C2CC2)[nH]n1)c1nnc2ccccn12` (centres undefined) | 5.479 | -12.43 | 2.603 |
| `CCOc1ncccc1NC(=O)N1CCc2ccccc2C1` | 18.46 | -0.8189 | 13.67 |
| `O=C(O)C(F)(F)F.O=C(O)C(F)(F)F.c1cnc(N2CC3(CCN(Cc4ccncc4)C3)C2)nc1` | - | - | -0.7005 |
| `Cc1ccc(C(F)(F)F)cc1C(=O)N[C@H]1CN(CCO)C[C@@H]1C1CC1` | 1.075 | -8.343 | 12.56 |
| `CCc1ccccc1NC(=O)CCc1cnn(C)c1` | 16.05 | -19.42 | -9.219 |
| `O=C(NCc1nnc2ccccn12)N1CCc2sccc2C1` | 13.51 | -12.82 | 24.82 |
| `CCc1nnc2n1CCN(C(=O)c1ccc(-c3ccco3)nc1C)C2` | 1.124 | -7.829 | -9.772 |
| `O=C(Cc1ccccc1F)NCC1CCN(CCN2CCOCC2)C1` (centres undefined) | 17.95 | -11.83 | 14.11 |
| `COc1ccc(NC(=O)Cn2nc(C)c(C)cc2=O)cc1OC` | 7.692 | 0.1532 | 0.4374 |
| `O=C(Nc1cccnc1)C1=NN(c2ccccc2)C(=O)CN1` | 3.39 | -9.935 | -5.723 |
| `Cc1ccc(S(=O)(=O)NCCCN2CCC(O)CC2)cc1Cl` | 20.43 | -25.97 | 10.18 |
| `CCCS(=O)(=O)NC(C)C(=O)NCc1ccc(N2CCCC2)nc1` (centres undefined) | 30.95 | 9.988 | 39.49 |
| `CN(Cc1nccs1)C1CCN(c2cccc(-c3cscn3)c2)CC1` | 15.05 | 2.795 | 8.314 |
| `NC(=O)CN1CCCC1c1cncc(Oc2ccc(Cl)cc2)n1` (centres undefined) | 2.069 | 4.53 | 4.342 |
| `Cc1[nH]c(-c2ccccc2)nc1C(=O)N1CC[C@H](CO)[C@@H](O)C1` | 6.452 | -45.03 | 4.807 |
| `NC(=O)C1CCN(C(=O)NCc2cccnc2OCC(F)(F)F)C1` (centres undefined) | 7.273 | -14.8 | 11.7 |
| `c1cnnc(NCC2CN(CC3CCOCC3)CCO2)c1` (centres undefined) | 26.92 | -6.159 | 14.37 |
| `CNC(=O)CN1C(=O)CCC12CCCN(Cc1ccccc1F)C2` (centres undefined) | 1.942 | -7.721 | 3.002 |
| `[H][C@]12CNC[C@@]1(C(=O)NCCOc1ccccc1)CN(S(C)(=O)=O)C2` | - | - | 41.46 |
| `Cc1c(C)n(CC(O)CN2CCC(C)CC2)c2c(Cl)cccc12` (centres undefined) | 10.17 | -25.74 | -5.355 |
| `Cc1ccc(S(C)(=O)=O)cc1C(=O)NS(=O)(=O)c1ccc(Cl)cc1` | 5.479 | -0.9509 | -12.49 |
| `Cc1cccc(N2CCC3(CCCC(=O)N3)CC2)n1` | 13.79 | 7.744 | - |
| `Cn1cc(CN2CCC3(CC2)CCN(C(=O)c2cscn2)CC3)cn1.O=C(O)C(F)(F)F` | - | - | 34.63 |
| `CCN(Cc1ccncc1)C(=O)c1cc(C)c(C)c(S(N)(=O)=O)c1` | 16.13 | -24.47 | 28.93 |
| `COCCN1CCc2cc(C(=O)N(C)C)c(NCC3CC3)nc2CC1.O=C(O)C(F)(F)F.O=C(O)C(F)(F)F` | - | - | 5.544 |
| `CC(Cn1cccn1)C(=O)N1CCCN(Cc2cscn2)CC1` (centres undefined) | 16.3 | -10.99 | 10.45 |
| `CC(NC(=O)NCCCc1n[nH]c(N)c1C#N)c1ccc(F)c(F)c1` (centres undefined) | 3.39 | 1.976 | 10.02 |
| `O=C(Cn1cccnc1=O)NC(Cc1cccs1)c1ccccn1` (centres undefined) | 19.44 | -34.11 | 2.742 |
| `[H][C@]12CCCC[C@]1([H])N(C(=O)N1CCOCC1)CC[C@@]2(O)c1ccccc1` | - | - | -1.027 |
| `N#Cc1ccnc(N2CCN(CC(O)c3cc(F)ccc3F)CC2)c1` (centres undefined) | 18.18 | -20.28 | 0.8533 |
| `COCCN(CCOC)C(=O)c1ccc(Cn2nc(C)cc2C)cc1` | 11.86 | -12.53 | 27.12 |
| `CC1CCN(S(=O)(=O)c2cccn(CC(=O)N3CCOCC3)c2=O)CC1` | -7.767 | -18.9 | -13.61 |
| `Cc1ccc(CN(C)C)cc1NC(=O)C1CC=CC1` | 4.225 | 2.828 | -3.322 |
| `Cn1cc(CNC2CCC(O)CC2)c(-c2cc3ccccc3o2)n1` (centres undefined) | 17.02 | -10.51 | - |
| `[H][C@]1([C@H](O)c2ccc(NC(=O)c3cccc(C#N)c3)cc2)COCC(=O)N1` | - | - | 9.702 |
| `Cc1cc(CN(C)C(=O)c2cc3c([nH]c2=O)CCCC3=O)no1` | 15.38 | -6.954 | 2.232 |
| `Cc1nc(O)cc(C2CCCN2CCO)n1` (centres undefined) | 19.79 | 2.926 | 16.1 |
| `Cc1ocnc1C(=O)N(C)[C@@H]1CC[C@@H](n2ccnc2C)[C@@H]1O` | 13.42 | -20.02 | 14.42 |
| `CC(C)NC(=O)[C@@H]1C[C@H](N)CN1C(=O)C1(c2ccc(Cl)cc2)CCC1` | 19.54 | -14.75 | 27.69 |
| `Cc1nc(CN(C)C(=O)CN(C)C)nc2c1CCC(=O)N2CCC(C)C` | 8.054 | 10.59 | 17.7 |
| `CCn1nc(C(C)C)cc1C(=O)NCC1CCCN(c2ccccn2)C1` (centres undefined) | 12.94 | -11.24 | -11.09 |
| `CC(C)C1SCC(=O)Nc2c1cnn2-c1ccc(Cl)cc1F` (centres undefined) | 13.04 | -30.18 | 7.593 |
| `Cc1cccc(CN2C[C@@H]3CN(C(=O)c4cnoc4C)C[C@@H]3C2=O)n1` | 15.38 | -35.05 | - |
| `Cc1cc(C(=O)N2CCCC2)ccc1NCC(=O)N1CCOCC1` | 7.692 | -14.74 | 17.32 |
| `O=C(CSc1ccccc1)N1CCC(N2CCCCC2=O)CC1` | -4.301 | -10.06 | 9.593 |
| `CN(C)C(C(=O)N1CCC(CCO)CC1)c1ccccc1F` (centres undefined) | 9.091 | -31.4 | -1.724 |
| `O=C(NC[C@H]1OC[C@@H](NCc2ccccc2)[C@@H]1O)Nc1ccc(F)cc1` | 17.57 | 8.585 | 18.7 |
| `Cn1nnnc1SCCNC(=O)CC1CCc2ccccc21` (centres undefined) | 18.31 | -19.93 | -3.053 |
| `CC(C)NC(=O)c1ccc2c(c1)nc1n2CCN(Cc2ccco2)C1` | 15 | 1.389 | -30.53 |
| `CC(=O)N1CCC2(CC1)CN(C(=O)c1cccc3[nH]ccc13)C2` | 21.21 | -16.95 | 40.28 |
| `Cc1n[nH]c(C)c1C1CCCN1C(=O)NC(C)(C)C` (centres undefined) | 8.434 | 3.78 | -8.826 |
| `CCCn1nnnc1COc1cc(OC)ccc1C(=O)OC` | 14.63 | 0.8474 | 14.85 |
| `C=Cc1ccc(CN2C(=O)C3(CCNCC3)Nc3ccccc32)cc1` | 22.12 | 46.68 | 98.05 |
| `CC(=O)N1N=C(c2ccccc2)OC1C(=O)NCCc1ccc(Cl)cc1` (centres undefined) | 5.941 | 8.846 | 4.628 |
| `Cc1ccc(CN2CC[C@@]3(O)CCN(S(=O)(=O)N(C)C)C[C@H]3C2)cc1C` | 24.1 | -28.55 | - |
| `O=C(NC1CCOC1)c1cccc(S(=O)(=O)NCCCc2ncc[nH]2)c1` (centres undefined) | 16.8 | -5.535 | -14.83 |
| `O=C(c1c(F)cccc1F)N1CCC[C@@H]1Cn1c(=O)oc2ccccc21` | 5.594 | 14.13 | 24.22 |
| `CN1CCOC[C@H]1c1nc(-c2cccnc2)c[nH]1` | 25 | -33.57 | -14.65 |
| `Cc1ccc2c(c1)nc1n2[C@@H](CNC(=O)c2cccnc2)COC1` | 25.68 | -29.16 | 15.28 |
| `O=C(O)c1cn(CC2CCCN(c3cnc4ccccc4n3)C2)nn1` (centres undefined) | 35.9 | -3.342 | 14.6 |
| `CCc1nc(CN2CCCN(C(=O)c3ccco3)CC2)cs1` | 17.54 | -18.28 | 3.441 |
| `CC(C)N1CCC(N2CCC(C(=O)N(C)C)CC2)CC1.O=C(O)C(F)(F)F.O=C(O)C(F)(F)F` | - | - | -1.441 |
| `CCN1CC2(CC1=O)CN(Cc1ccco1)CCN(C(=O)N(C)C)C2.O=C(O)C(F)(F)F` (centres undefined) | - | - | -18.61 |
| `Cc1ccccc1OCCN(C)C(=O)NC(C)c1nncn1C` (centres undefined) | 18.97 | -5.403 | 18.58 |
| `CNC(=O)c1cc(OC)c(OC)cc1N(C)S(C)(=O)=O` | 5.833 | -14.22 | -11.85 |
| `CC(C)c1ccc(-n2ncc(C(=O)N(C)C3CCN(C)CC3)c2N)cc1` | 21.78 | 0.8262 | 40.85 |
| `Cc1ccc(N2C[C@@H]3CN(Cc4ccoc4)CCO[C@@H]3C2)nn1` | 28 | -12.67 | - |

Once more, the final 6:

| compound | LiHisRS | Pks13 thioesterase | Leishmania in macrophages |
|---|---|---|---|
| `CC(C)N1CCC(N2CCC(C(=O)N(C)C)CC2)CC1.O=C(O)C(F)(F)F.O=C(O)C(F)(F)F` | - | - | -1.441 |
| `CCN1CC2(CC1=O)CN(Cc1ccco1)CCN(C(=O)N(C)C)C2.O=C(O)C(F)(F)F` (centres undefined) | - | - | -18.61 |
| `Cc1ccccc1OCCN(C)C(=O)NC(C)c1nncn1C` (centres undefined) | 18.97 | -5.403 | 18.58 |
| `CNC(=O)c1cc(OC)c(OC)cc1N(C)S(C)(=O)=O` | 5.833 | -14.22 | -11.85 |
| `CC(C)c1ccc(-n2ncc(C(=O)N(C)C3CCN(C)CC3)c2N)cc1` | 21.78 | 0.8262 | 40.85 |
| `Cc1ccc(N2C[C@@H]3CN(Cc4ccoc4)CCO[C@@H]3C2)nn1` | 28 | -12.67 | - |